Test results reported in publication PMC7954791, “MAGIs regulate aPKC to enable balanced distribution of intercellular tension for epithelial sheet homeostasis” (Communications Biology, 2021).
No constants are given. Whether binding was seen depends on the method and setting. In cells and extracts the contact can be indirect. Some binding calls cover weakened binding; strength is not graded here. For some of these results: Where a sequence is shown, tags or fusion partners need not be part of it.

Protein sequences, listed by entry. Tags and fused reporters are not part of them.
UniProt P39447: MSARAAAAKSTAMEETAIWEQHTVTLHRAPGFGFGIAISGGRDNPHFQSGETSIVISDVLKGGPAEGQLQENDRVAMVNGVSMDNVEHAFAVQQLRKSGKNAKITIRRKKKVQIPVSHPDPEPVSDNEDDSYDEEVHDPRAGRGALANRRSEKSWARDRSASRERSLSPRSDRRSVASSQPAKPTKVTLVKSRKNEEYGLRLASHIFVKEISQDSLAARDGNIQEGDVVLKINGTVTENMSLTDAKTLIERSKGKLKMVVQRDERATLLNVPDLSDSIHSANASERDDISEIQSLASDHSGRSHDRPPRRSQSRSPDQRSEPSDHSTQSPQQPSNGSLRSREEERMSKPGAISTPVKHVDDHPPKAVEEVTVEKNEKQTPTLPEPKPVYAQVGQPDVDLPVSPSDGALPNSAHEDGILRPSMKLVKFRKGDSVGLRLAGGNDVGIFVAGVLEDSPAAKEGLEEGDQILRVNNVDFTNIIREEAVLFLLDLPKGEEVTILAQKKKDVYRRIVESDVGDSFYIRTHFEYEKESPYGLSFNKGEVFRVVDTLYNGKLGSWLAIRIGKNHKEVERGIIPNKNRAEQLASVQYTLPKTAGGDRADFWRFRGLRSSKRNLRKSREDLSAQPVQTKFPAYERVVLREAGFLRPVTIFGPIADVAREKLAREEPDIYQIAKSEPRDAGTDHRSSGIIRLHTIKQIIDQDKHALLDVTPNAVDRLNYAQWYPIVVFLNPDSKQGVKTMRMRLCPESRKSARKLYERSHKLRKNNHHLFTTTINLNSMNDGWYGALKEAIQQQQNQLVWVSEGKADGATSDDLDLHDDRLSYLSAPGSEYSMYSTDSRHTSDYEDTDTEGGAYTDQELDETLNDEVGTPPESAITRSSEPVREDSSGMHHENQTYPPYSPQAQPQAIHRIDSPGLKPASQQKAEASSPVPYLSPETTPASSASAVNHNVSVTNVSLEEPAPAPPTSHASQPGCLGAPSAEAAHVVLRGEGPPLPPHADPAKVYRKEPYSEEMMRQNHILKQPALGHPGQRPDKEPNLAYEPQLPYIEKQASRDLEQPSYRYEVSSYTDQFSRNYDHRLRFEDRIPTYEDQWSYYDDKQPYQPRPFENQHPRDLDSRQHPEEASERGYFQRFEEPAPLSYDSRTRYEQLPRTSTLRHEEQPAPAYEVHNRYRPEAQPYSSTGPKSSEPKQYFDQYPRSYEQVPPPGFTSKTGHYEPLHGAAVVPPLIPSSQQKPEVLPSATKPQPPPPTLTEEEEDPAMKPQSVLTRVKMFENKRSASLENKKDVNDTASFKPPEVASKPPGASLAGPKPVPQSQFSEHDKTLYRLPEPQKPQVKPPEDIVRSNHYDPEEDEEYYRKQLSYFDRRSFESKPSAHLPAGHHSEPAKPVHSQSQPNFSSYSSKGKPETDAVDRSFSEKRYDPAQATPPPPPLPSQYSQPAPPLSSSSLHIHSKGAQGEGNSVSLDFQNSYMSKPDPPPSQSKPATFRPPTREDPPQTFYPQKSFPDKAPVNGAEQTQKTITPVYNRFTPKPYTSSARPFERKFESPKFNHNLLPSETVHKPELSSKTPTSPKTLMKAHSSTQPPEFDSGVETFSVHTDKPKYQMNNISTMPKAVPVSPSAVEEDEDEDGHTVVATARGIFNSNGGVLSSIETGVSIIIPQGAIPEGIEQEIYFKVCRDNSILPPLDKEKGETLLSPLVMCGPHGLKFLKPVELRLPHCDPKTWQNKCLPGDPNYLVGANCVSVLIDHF
UniProt Q9QZQ1: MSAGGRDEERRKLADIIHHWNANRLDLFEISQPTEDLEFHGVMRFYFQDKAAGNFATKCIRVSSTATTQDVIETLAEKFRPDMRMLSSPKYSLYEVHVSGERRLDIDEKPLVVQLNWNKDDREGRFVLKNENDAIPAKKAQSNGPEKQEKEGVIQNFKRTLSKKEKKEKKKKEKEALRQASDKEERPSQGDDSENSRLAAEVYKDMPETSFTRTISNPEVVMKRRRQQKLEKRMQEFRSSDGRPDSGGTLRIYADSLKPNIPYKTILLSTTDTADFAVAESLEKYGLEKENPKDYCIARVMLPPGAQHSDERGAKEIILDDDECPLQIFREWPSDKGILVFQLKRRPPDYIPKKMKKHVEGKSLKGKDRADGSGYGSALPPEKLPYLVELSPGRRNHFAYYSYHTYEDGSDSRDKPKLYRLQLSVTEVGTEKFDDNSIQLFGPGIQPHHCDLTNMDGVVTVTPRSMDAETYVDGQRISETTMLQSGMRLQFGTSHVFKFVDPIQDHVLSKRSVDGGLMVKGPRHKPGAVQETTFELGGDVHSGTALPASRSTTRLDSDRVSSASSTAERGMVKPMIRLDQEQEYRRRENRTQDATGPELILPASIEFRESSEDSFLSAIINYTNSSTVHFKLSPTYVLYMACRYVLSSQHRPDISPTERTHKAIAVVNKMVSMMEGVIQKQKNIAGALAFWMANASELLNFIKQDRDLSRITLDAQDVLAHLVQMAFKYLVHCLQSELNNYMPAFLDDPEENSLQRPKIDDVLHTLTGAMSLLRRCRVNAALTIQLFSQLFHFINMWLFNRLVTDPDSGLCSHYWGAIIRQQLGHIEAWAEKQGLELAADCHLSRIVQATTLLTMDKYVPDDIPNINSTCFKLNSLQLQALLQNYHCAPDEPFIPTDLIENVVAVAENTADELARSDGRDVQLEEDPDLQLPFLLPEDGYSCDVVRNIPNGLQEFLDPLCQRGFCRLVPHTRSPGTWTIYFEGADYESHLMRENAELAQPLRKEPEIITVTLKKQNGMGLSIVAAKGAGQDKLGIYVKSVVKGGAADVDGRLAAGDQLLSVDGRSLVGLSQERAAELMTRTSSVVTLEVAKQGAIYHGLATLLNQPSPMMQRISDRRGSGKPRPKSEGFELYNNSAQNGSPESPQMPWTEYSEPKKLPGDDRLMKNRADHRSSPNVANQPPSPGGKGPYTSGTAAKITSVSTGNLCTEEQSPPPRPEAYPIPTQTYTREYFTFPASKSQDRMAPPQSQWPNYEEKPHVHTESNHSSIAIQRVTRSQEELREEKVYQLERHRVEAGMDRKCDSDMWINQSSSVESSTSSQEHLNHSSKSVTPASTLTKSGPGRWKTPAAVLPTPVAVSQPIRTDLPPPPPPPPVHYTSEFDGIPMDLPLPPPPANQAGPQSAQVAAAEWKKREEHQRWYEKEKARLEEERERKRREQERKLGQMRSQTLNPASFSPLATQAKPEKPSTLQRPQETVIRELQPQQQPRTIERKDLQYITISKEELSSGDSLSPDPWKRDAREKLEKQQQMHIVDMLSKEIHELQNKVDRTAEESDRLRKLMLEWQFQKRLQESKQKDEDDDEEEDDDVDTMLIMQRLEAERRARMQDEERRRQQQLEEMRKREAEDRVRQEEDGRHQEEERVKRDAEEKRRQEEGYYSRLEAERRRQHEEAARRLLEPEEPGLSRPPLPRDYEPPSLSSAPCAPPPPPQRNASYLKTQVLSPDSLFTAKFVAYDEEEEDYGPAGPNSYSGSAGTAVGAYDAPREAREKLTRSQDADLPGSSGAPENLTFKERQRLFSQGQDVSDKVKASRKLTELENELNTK

Assays:
[1] = biological target: T1, ankyrin-repeat-, SH3-domain- and proline-rich-region-containing protein 2 (ASPP2), FLAG-tagged (UniProt Q8CG79); test: co-IP; FLAG immunoprecipitation in a heterologous expression system; FLAG-ASPP2 and HA-MAGI-3 co-expressed with GFP alone; 20 mM Tris-HCl pH 7.5, 150 mM NaCl, 1% Triton X-100
T1 sequence: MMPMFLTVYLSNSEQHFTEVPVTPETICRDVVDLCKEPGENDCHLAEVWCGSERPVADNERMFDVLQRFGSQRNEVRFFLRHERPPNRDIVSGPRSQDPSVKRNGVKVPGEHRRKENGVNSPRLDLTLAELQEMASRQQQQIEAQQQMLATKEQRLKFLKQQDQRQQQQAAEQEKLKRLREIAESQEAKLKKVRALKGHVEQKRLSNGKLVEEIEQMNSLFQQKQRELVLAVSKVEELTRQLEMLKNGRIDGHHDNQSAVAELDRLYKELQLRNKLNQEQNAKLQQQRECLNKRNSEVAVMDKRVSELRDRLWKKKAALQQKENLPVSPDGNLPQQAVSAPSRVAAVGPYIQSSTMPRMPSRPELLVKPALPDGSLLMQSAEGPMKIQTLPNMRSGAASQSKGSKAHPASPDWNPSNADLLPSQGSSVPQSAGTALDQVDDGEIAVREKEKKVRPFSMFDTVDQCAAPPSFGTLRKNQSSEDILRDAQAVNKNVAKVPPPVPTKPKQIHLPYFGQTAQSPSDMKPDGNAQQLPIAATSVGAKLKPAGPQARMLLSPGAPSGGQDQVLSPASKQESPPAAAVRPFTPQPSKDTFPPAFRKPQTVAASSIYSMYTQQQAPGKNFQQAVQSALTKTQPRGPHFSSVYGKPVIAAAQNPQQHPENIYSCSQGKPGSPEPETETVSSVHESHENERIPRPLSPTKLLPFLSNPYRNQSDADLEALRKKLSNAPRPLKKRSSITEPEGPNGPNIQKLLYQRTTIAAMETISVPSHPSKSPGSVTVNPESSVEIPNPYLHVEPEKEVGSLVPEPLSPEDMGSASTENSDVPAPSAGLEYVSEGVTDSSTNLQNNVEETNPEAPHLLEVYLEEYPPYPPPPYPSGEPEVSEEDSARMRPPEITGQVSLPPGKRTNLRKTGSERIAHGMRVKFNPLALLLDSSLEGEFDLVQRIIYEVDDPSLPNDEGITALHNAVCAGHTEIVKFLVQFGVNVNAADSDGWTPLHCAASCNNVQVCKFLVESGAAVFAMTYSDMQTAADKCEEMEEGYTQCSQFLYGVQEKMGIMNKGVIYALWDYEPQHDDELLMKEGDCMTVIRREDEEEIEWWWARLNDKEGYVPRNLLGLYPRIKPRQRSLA

ZO-1 = ZO-1 (UniProt P39447); test: co-IP; FLAG immunoprecipitation in a heterologous expression system; anti-DYKDDDDK mAb beads 2 h; 20 mM Tris-HCl pH 7.5, 150 mM NaCl, 1% Triton X-100; blots with anti-FLAG, anti-HA, anti-GFP
ZO-2 = biological target: T2, ZO-2 (UniProt Q9Z0U1); test: as above
T2 sequence: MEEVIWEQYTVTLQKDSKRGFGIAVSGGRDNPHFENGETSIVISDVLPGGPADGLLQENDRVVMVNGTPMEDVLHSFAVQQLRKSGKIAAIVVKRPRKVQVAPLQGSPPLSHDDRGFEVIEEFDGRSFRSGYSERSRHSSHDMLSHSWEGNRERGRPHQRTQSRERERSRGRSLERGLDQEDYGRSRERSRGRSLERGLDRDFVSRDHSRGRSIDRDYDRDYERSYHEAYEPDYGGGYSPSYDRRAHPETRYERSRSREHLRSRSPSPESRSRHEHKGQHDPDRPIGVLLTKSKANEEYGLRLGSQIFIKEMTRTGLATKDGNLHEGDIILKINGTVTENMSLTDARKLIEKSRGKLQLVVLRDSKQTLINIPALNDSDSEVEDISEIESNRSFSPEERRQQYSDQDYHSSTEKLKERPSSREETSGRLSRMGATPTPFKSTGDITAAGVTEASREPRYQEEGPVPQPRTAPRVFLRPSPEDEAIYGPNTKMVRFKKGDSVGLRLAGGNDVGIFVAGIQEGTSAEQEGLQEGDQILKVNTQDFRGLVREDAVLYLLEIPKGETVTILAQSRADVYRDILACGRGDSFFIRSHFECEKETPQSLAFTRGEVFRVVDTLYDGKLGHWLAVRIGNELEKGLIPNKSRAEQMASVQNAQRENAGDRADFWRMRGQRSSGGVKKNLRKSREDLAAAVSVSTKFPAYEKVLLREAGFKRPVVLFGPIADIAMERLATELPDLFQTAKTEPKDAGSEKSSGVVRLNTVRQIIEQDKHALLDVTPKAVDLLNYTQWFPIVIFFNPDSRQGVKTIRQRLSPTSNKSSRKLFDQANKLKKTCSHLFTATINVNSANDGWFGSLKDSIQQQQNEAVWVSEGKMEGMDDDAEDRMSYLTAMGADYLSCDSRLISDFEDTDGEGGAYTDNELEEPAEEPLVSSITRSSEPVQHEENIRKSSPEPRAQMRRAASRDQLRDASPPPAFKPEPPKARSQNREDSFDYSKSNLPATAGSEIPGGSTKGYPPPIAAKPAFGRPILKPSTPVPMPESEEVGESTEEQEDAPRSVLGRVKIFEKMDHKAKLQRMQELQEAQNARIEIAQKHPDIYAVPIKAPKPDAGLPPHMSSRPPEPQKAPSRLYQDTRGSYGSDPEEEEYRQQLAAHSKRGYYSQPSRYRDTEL

afadin = afadin (UniProt Q9QZQ1); test: as above

B1: MAGI-3 (natural protein, UniProt Q9EQJ9 1-1476, looked up)
chain: MSKTLKKKKHWLSKVQECAVSWAGPPGDLGAEIRGGAERGEFPYLGRLRDEAGGGGGTCCVVSGKAPSPGDVLLEVNGTPVSGLTNRDTLAVIRHFREPIRLKTVKPGKVINKDLRHYLSLQFQKGSIDHKLQQVIRDNLYLRTIPCTTRAPRDGEVPGVDYNFISVEQFKALEESGALLESGTYDGNFYGTPKPPAEPSPFQPDPVDQVLFDNEFDTESQRKRTTSVSKMERMDSSLPEEEEDEDKEAVNGSGSMETREMHSETSDCWMKTVPSYNQTNSSMDFRNYMMRDENLEPLPKNWEMAYTDTGMIYFIDHNTKTTTWLDPRLCKKAKAPEDCEDGELPYGWEKIEDPQYGTYYVDHLNQKTQFENPVEEAKRKKQLGQAEIHSAKTDVERAHFTRDPSQLKGVLVRASLKKSTMGFGFTIIGGDRPDEFLQVKNVLKDGPAAQDGKIAPGDVIVDINGNCVLGHTHADVVQMFQLVPVNQYVNLTLCRGYPLPDDSEDPVVDIVAATPVINGQSLTKGETCMNTQDFKLGAMVLDQNGKSGQILASDRLNGPSESSEQRASLASSGSSQPELVTIPLIKGPKGFGFAIADSPTGQKVKMILDSQWCQGLQKGDIIKEIYHQNVQNLTHLQVVEVLKQFPVGADVPLLILRGGPCSPTKTAKTKTDTKENSGSLETINEPIPQPMPFPPSIIRSGSPKLDPSEVYLKSKTLYEDKPPNTKDLDVFLRKQESGFGFRVLGGDGPDQSIYIGAIIPLGAAEKDGRLRAADELMCIDGIPVKGKSHKQVLDLMTTAARNGHVLLTVRRKIFYGEKQPEDESHQAFSQNGSPRLNRAELPTRSAPQEAYDVTLQRKENEGFGFVILTSKSKPPPGVIPHKIGRVIDGSPADRCGGLKVGDHISAVNGQSIVDLSHDNIVQLIKDAGVTVTLTVVAEEEHHGPPSGTNSARQSPALQHRPMGQAQANHIPGDRIALEGEIGRDVCSSYRHSWSDHKHLAQPDTAVISVVGSRHNQSLGCYPVELERGPRGFGFSLRGGKEYNMGLFILRLAEDGPAIKDGRIHVGDQIVEINGEPTQGITHTRAIELIQAGGNKVLLLLRPGTGLIPDHGDWDTNSPSSSNVIYDEQPPPLPSSHSASTFEESHVPATEDSLTRVQICEKAEELKDTVQEKKSTLNGSQPEMKYQSVHKTMSKKDPPRGSGHGEKSRLKGENGVTRRGRSASPKKSVNRHSEEHLEKIPRPLKSDPKEKSRDRSLSPRKGESKGRLTIKAGSGQDPYRKDRGRSSSPKKQQKIGGNSLSNTEGKLSEAGSRRAAGHPRDSTEQLPDGREKSGVSRKDLKQSQPGKTRTKSPEKKSSKVDETSLPSKKTSSTAGRVVSEKEKGKKPTAGETSRETVEHTQISAKQLKQEAQEKTALGNADDHKGRESEVTDRCRERAGCTPQSSSLVKKAPITPGPWRVPRANKVTGTTGMADKQL
notes: MAGI-3, expressed in a heterologous expression system for FLAG immunoprecipitation; HEK293 is probably the host; also called HA-MAGI-3; MAGI proteins; source: heterologous expression system, in lysate
binding [1]: binds weakly
binding (ZO-1): binds
binding (ZO-2): binds
binding (afadin): binds
